Some of the results follow.
Tests used:
Assay in all cases: log2 fold change, soluble protein after heating vs DMSO (PISA); higher = thermal stabilisation; K562 cells, 10 uM, 30 min; active = over 0.2 and 3.5 SD of the protein, either way, in both replicates (recomputed)
[1] = compound: NC(=O)Nc1cc(-c2cccc(F)c2)sc1C(=O)N[C@H]1CCCNC1
In short: (§1)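 Soluble protein was quantified by TMTpro 16plex LC-MS/MS after channel sums were equalised. It was obtained as the supernatant after 21,000xg for 90 min from pooled aliquots of K562 cells (2×10^6 cells/mL, 10 μM compound, 30 min) heated for 3 min across 48°C-58°C and extracted in PBS with 0.5% NP-40 at 4°C. Thermal stability values are relative to control samples and come from duplicates. They are given as log2 fold changes.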

Amino acid sequences for entries named in this document (tags omitted). A change or cut given only in a name is not applied to a line headed by its entry.
UniProt Q8WW01: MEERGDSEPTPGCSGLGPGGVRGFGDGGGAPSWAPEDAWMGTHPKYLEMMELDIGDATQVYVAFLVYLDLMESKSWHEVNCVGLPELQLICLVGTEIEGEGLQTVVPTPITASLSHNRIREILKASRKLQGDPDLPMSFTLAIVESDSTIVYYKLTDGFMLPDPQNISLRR
UniProt O14787: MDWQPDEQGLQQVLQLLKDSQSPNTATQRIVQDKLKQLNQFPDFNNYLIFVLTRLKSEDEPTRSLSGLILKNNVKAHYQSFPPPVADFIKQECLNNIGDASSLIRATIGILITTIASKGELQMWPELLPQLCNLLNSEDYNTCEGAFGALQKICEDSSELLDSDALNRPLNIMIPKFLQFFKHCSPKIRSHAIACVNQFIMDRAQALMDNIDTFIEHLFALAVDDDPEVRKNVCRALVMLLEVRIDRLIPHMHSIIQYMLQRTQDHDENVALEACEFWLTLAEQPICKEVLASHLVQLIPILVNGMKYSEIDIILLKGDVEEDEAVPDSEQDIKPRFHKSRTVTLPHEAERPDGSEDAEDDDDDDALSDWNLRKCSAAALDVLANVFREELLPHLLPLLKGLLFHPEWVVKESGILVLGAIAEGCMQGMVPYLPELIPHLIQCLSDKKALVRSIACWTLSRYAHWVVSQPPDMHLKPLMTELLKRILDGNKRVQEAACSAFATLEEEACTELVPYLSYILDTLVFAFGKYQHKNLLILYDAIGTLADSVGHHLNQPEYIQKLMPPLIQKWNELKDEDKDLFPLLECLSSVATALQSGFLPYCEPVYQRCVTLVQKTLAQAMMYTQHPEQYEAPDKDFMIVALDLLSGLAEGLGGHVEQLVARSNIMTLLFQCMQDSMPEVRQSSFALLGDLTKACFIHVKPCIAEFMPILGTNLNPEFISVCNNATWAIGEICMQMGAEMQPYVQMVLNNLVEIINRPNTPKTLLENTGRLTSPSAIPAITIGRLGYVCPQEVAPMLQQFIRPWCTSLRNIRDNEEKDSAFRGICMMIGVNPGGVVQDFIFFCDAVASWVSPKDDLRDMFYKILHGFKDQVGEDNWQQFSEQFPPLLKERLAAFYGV
UniProt Q9UJA5: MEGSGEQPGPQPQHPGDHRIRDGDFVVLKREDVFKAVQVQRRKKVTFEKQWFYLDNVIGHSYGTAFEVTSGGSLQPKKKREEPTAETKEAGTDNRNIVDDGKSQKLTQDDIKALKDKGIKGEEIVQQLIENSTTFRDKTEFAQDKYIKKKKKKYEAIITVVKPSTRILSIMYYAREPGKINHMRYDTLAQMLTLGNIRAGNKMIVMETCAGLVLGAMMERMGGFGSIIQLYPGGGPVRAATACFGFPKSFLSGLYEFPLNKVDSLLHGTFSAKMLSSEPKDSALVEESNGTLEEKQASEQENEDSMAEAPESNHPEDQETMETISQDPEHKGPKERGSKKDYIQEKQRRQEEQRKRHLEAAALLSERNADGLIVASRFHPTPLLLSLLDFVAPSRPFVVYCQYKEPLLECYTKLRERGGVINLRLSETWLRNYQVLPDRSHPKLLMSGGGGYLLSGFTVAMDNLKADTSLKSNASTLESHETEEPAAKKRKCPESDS
UniProt Q96S44: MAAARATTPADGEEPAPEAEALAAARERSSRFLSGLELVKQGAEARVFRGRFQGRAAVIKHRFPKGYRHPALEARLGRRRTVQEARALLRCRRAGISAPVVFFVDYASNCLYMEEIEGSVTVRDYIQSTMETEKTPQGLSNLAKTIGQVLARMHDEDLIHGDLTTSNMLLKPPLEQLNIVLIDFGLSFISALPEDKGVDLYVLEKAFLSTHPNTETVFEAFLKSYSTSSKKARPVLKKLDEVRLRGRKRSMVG
UniProt P09493, whole entry, looked up: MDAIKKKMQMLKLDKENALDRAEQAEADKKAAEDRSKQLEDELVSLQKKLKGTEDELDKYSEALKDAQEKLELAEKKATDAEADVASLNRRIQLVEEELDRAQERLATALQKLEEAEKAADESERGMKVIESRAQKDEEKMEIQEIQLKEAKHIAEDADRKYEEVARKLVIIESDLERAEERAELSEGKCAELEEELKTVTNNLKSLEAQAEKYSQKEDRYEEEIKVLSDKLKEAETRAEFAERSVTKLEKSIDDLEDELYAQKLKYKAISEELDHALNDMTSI
UniProt Q9H497: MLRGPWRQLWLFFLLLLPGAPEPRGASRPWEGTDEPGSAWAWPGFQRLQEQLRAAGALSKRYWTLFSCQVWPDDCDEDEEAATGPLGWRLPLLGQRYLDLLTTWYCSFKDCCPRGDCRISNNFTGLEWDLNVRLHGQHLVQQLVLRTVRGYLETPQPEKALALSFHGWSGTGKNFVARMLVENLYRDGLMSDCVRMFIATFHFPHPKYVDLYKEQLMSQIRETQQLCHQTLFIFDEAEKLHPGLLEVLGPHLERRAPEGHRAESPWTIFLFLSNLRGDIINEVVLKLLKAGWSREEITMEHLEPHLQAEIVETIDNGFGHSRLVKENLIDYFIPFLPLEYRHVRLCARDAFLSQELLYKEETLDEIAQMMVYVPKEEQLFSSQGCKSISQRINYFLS
UniProt Q12933: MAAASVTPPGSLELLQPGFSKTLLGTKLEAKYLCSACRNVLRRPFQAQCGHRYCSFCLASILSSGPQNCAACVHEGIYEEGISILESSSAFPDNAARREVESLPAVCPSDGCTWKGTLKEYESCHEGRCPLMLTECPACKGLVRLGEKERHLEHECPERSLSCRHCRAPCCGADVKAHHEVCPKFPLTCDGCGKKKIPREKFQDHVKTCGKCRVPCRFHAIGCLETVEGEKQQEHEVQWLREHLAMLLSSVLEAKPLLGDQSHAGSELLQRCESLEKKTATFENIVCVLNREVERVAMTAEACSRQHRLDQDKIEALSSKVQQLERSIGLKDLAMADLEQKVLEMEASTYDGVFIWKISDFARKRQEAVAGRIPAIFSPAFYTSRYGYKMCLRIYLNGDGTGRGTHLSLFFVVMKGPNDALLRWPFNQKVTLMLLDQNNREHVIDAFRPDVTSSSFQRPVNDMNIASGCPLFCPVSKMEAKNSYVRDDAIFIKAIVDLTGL
UniProt Q15785: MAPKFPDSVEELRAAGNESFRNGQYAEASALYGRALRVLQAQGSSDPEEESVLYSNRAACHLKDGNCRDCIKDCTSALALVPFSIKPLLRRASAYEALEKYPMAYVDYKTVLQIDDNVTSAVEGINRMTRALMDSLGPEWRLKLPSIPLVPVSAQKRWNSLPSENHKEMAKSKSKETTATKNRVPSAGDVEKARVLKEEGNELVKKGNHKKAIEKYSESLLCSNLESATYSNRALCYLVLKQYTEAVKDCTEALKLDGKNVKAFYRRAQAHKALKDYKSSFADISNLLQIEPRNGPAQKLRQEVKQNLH
UniProt Q8NFQ8: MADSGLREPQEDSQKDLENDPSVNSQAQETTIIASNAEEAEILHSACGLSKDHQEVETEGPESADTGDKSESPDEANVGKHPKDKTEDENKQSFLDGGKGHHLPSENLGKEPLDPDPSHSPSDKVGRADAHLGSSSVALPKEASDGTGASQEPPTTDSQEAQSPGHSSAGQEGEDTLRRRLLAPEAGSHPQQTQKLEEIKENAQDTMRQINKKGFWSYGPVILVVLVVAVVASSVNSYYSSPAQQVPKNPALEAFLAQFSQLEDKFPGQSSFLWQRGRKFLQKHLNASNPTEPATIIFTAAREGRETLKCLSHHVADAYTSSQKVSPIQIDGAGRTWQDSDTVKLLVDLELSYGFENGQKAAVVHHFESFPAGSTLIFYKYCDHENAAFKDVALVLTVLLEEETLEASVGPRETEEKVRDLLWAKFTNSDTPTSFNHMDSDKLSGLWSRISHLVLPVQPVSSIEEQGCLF
UniProt Q9Y5S1: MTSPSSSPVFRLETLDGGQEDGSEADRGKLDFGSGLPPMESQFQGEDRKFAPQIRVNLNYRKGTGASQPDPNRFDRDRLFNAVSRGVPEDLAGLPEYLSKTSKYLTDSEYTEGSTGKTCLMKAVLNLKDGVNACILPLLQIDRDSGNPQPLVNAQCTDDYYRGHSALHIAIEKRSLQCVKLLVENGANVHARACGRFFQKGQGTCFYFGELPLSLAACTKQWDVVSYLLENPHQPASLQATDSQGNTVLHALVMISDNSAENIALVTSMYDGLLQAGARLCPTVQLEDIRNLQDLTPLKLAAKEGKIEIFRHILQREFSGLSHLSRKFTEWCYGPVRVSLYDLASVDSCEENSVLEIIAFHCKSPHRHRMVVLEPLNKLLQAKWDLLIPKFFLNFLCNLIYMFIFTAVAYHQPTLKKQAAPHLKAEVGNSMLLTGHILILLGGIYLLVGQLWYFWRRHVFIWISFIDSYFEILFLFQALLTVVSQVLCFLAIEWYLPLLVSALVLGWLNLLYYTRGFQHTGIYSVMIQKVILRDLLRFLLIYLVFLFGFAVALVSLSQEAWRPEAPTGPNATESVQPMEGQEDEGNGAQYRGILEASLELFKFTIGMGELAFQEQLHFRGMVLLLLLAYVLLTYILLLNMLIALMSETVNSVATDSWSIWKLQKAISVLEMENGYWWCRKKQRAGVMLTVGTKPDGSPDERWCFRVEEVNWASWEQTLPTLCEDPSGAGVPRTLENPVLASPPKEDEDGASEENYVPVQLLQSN
UniProt Q96Q11: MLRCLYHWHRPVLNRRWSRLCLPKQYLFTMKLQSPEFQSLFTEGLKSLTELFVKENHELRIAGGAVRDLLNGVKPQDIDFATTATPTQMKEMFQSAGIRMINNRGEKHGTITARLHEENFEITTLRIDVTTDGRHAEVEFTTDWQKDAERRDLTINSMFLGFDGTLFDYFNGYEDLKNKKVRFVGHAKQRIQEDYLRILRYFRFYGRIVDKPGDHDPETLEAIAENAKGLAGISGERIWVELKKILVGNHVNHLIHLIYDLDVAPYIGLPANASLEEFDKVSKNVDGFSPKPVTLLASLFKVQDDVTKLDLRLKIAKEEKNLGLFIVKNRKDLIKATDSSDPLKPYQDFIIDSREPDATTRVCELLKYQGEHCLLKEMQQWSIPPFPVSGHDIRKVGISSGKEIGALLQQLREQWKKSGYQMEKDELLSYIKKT
UniProt O14773: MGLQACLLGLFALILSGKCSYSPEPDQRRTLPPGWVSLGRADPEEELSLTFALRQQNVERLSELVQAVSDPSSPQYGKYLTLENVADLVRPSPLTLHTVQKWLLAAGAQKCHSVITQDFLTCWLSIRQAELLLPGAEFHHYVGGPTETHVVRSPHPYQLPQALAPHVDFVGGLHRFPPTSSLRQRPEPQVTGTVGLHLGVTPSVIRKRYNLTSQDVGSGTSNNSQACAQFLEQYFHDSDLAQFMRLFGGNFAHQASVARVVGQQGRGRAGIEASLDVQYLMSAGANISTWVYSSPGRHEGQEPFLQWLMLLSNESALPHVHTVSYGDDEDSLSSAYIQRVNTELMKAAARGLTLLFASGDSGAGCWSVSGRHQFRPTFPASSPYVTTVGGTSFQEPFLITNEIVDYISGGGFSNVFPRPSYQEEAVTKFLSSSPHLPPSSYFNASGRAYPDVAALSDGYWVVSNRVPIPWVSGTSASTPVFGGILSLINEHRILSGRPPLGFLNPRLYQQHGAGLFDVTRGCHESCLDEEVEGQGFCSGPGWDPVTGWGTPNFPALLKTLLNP
UniProt O14657: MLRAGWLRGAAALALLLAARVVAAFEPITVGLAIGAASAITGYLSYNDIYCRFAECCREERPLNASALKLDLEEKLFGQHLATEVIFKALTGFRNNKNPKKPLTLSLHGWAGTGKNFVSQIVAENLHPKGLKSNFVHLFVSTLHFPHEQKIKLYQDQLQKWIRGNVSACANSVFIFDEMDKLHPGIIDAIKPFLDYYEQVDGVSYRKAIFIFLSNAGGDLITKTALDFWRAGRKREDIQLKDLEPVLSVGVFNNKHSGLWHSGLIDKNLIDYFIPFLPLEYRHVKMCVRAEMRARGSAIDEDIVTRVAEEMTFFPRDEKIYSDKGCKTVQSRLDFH
UniProt O94842: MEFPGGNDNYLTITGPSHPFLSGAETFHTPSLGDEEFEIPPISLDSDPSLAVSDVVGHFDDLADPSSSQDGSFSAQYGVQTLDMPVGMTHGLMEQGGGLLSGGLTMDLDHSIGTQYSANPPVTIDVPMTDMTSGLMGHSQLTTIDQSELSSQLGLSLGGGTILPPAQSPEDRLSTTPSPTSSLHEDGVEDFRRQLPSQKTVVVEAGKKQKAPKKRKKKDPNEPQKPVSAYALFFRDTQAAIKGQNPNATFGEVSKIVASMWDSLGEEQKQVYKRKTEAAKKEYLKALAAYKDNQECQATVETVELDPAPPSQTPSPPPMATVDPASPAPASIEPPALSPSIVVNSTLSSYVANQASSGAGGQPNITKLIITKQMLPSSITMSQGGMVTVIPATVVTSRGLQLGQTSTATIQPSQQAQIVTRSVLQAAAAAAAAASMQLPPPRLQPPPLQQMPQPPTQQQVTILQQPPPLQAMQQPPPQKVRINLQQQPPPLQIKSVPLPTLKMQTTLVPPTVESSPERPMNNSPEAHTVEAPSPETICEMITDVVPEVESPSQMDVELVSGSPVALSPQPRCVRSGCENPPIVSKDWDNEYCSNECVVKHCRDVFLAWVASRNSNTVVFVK

[2] = compound: NC(=O)c1cnc(N[C@@H]2CCCC[C@@H]2N)nc1Nc1cccc(-n2nccn2)c1
In short: as §1

[3] = compound: NC1(c2ccc(-c3nc4ccn5c(=O)[nH]nc5c4cc3-c3ccccc3)cc2)CCC1
In short: as §1

[4] = compound: NCC(=O)Nc1ccc(-n2nc(C(F)(F)F)cc2-c2ccc3c(ccc4ccccc43)c2)cc1
In short: as §1

entinostat = compound: Nc1ccccc1NC(=O)c1ccc(CNC(=O)OCc2cccnc2)cc1 [entinostat]
In short: as §1

vorinostat = compound: O=C(CCCCCCC(=O)Nc1ccccc1)NO [vorinostat]
In short: as §1

citarinostat = compound: O=C(CCCCCCNC(=O)c1cnc(N(c2ccccc2)c2ccccc2Cl)nc1)NO [citarinostat]
In short: as §1

silmitasertib = compound: O=C(O)c1ccc2c(c1)nc(Nc1cccc(Cl)c1)c1ccncc12 [silmitasertib]
In short: as §1

[5] = compound: O=C1NC(=O)C(c2cnc3ccccn23)=C1c1cn2c3c(cc(F)cc13)CN(C(=O)N1CCCCC1)CC2
In short: as §1

[6] = compound: c1cc(OCCN2CCCCC2)cc(-c2n[nH]c3ccc(-c4nnc[nH]4)cc23)c1
In short: as §1

Measured: log2 fold change

TPM4, A0A2R8Y5V9
inactive: [1] 0.011 | [2] 0.019 | [3] -0.025 | [4] 0.013 | entinostat 0.014 | vorinostat -0.014 | citarinostat 0.039 | silmitasertib 0 | [5] -0.028 | [6] -0.013

TSEN15 (UniProt Q8WW01)
inactive: [1] -0.059 | [2] -0.046 | [3] -0.043 | [4] -0.091 | entinostat -0.105 | vorinostat -0.022 | citarinostat -0.003 | silmitasertib 0.063 | [5] 0.026 | [6] -0.049

TNPO2 (UniProt O14787)
inactive: [1] 0.015 | [2] -0.174 | [3] -0.268 | [4] -0.054 | entinostat 0.064 | vorinostat -0.008 | citarinostat 0.047 | silmitasertib 0.059 | [5] -0.04 | [6] -0.124

TRIP11 (UniProt Q15643)
inactive: [1] 0.024 | [2] -0.062 | [3] 0.041 | [4] 0.157 | entinostat -0.037 | vorinostat 0.056 | citarinostat -0.028 | silmitasertib 0.072 | [5] -0.082 | [6] -0.032

TRIP6 (UniProt Q15654)
inactive: [1] -0.018 | [2] 0.03 | [3] 0.015 | [4] 0.028 | entinostat 0.001 | vorinostat -0.017 | citarinostat 0.04 | silmitasertib -0.003 | [5] -0.014 | [6] 0.034

TRMT11 (UniProt Q7Z4G4)
inactive: [1] -0.082 | [2] 0.051 | [3] -0.038 | [4] 0.03 | entinostat -0.054 | vorinostat 0.03 | citarinostat -0.016 | silmitasertib 0.017 | [5] -0.015 | [6] 0.008

TRMT6 (UniProt Q9UJA5)
inactive: [1] -0.023 | [2] -0.145 | [3] 0.166 | [4] 0.044 | entinostat -0.058 | vorinostat 0.008 | citarinostat -0.079 | silmitasertib 0.095 | [5] 0.193 | [6] -0.123

TOP2B (UniProt Q02880)
inactive: [1] 0.19 | [2] 0.023 | [3] 0.245 | [4] 0.173 | entinostat -0.03 | vorinostat -0.001 | citarinostat -0.128 | silmitasertib 0.129 | [5] 0.354 | [6] -0.129

TP53RK (UniProt Q96S44)
inactive: [1] 0.011 | [2] -0.021 | [3] -0.006 | [4] -0.009 | entinostat -0.024 | vorinostat -0.018 | citarinostat 0.015 | silmitasertib -0.026 | [5] -0.026 | [6] -0.046

2 entries drawn at random from those above, as already listed:
TOP2B (UniProt Q02880)
inactive: [1] 0.19 | [2] 0.023 | [3] 0.245 | [4] 0.173 | entinostat -0.03 | vorinostat -0.001 | citarinostat -0.128 | silmitasertib 0.129 | [5] 0.354 | [6] -0.129

TRIP11 (UniProt Q15643)
inactive: [1] 0.024 | [2] -0.062 | [3] 0.041 | [4] 0.157 | entinostat -0.037 | vorinostat 0.056 | citarinostat -0.028 | silmitasertib 0.072 | [5] -0.082 | [6] -0.032

Later entries.

TRIM4 (UniProt Q9C037)
inactive: [1] -0.04 | [2] 0.007 | [3] 0.082 | [4] -0.294 | entinostat 0.03 | vorinostat -0.03 | citarinostat -0.006 | silmitasertib 0.042 | [5] -0.051 | [6] -0.049

TOP2A isoform 4 (UniProt P11388)
inactive: [1] 0.159 | [2] 0.058 | [3] 0.307 | [4] 0.19 | entinostat -0.042 | vorinostat 0.034 | citarinostat -0.112 | silmitasertib 0.255 | [5] 0.296 | [6] -0.205

TOE1 (UniProt Q96GM8)
inactive: [1] 0.09 | [2] -0.011 | [3] 0.104 | [4] -0.01 | entinostat -0.038 | vorinostat -0.047 | citarinostat 0.011 | silmitasertib 0.026 | [5] 0.122 | [6] -0.18

TPM1 isoform 4 (UniProt P09493)
inactive: [1] 0.056 | [2] 0.045 | [3] 0.09 | [4] 0.006 | entinostat 0.015 | vorinostat -0.003 | citarinostat 0.032 | silmitasertib -0.104 | [5] -0.015 | [6] 0.003

TRIM24 (UniProt O15164)
inactive: [1] 0.063 | [2] 0.143 | [3] -0.055 | [4] -0.086 | entinostat 0.067 | vorinostat 0.072 | citarinostat 0.133 | silmitasertib 0.115 | [5] 0.064 | [6] 0.269

TOR3A (UniProt Q9H497)
inactive: [1] -0.015 | [2] 0.014 | [3] -0.076 | [4] 0.043 | entinostat 0.005 | vorinostat 0.023 | citarinostat 0.022 | silmitasertib 0.029 | [5] -0.079 | [6] -0.108

TRAF2 (UniProt Q12933)
inactive: [1] 0 | [2] 0.008 | [3] -0.025 | [4] 0.023 | entinostat 0.019 | vorinostat -0.032 | citarinostat 0.022 | silmitasertib -0.006 | [5] -0.008 | [6] 0.038

TRMT2A (UniProt Q8IZ69)
inactive: [1] -0.031 | [2] -0.128 | [3] -0.091 | [4] -0.003 | entinostat 0.022 | vorinostat 0.03 | citarinostat -0.03 | silmitasertib -0.003 | [5] 0.018 | [6] -0.062

TRAPPC9 isoform 2 (UniProt Q96Q05)
inactive: [1] -0.015 | [2] 0.013 | [3] -0.068 | [4] -0.055 | entinostat 0.006 | vorinostat 0.102 | citarinostat 0.103 | silmitasertib -0.004 | [5] 0.066 | [6] -0.172

TRMT1L (UniProt Q7Z2T5)
inactive: [1] 0.072 | [2] 0.097 | [3] 0.257 | [4] 0.082 | entinostat -0.084 | vorinostat -0.056 | citarinostat -0.056 | silmitasertib 0.209 | [5] 0.229 | [6] -0.191

TOMM34 (UniProt Q15785)
inactive: [1] -0.106 | [2] -0.03 | [3] 0.051 | [4] -0.054 | entinostat 0.024 | vorinostat 0.054 | citarinostat 0.05 | silmitasertib 0.117 | [5] 0.015 | [6] -0.024

TOR1AIP2 (UniProt Q8NFQ8)
inactive: [1] -0.021 | [2] -0.023 | [3] -0.015 | [4] -0.009 | entinostat -0.006 | vorinostat -0.02 | citarinostat -0.001 | silmitasertib 0.049 | [5] 0.004 | [6] -0.085

TRPV2 (UniProt Q9Y5S1)
inactive: [1] -0.079 | [2] 0.011 | [3] -0.035 | [4] 0.04 | entinostat -0.053 | vorinostat -0.024 | citarinostat 0.027 | silmitasertib 0.008 | [5] -0.059 | [6] -0.063

TSC22D2 (UniProt O75157)
inactive: [1] -0.095 | [2] -0.038 | [3] -0.021 | [4] -0.073 | entinostat -0.083 | vorinostat -0.148 | citarinostat -0.02 | silmitasertib 0.026 | [5] -0.074 | [6] -0.015

TRNT1 (UniProt Q96Q11)
inactive: [1] -0.037 | [2] -0.018 | [3] -0.101 | [4] -0.064 | entinostat -0.022 | vorinostat 0.051 | citarinostat 0.062 | silmitasertib -0.034 | [5] -0.127 | [6] -0.017

TRMT61B (UniProt Q9BVS5)
inactive: [1] -0.01 | [2] -0.051 | [3] 0.113 | [4] 0.081 | entinostat -0.059 | vorinostat 0.028 | citarinostat -0.014 | silmitasertib 0.054 | [5] 0.193 | [6] -0.106

TPP1 (UniProt O14773)
inactive: [1] -0.036 | [2] -0.037 | [3] -0.174 | [4] -0.08 | entinostat 0.036 | vorinostat 0.031 | citarinostat 0.035 | silmitasertib -0.036 | [5] -0.014 | [6] -0.091

TRAPPC4 (UniProt Q9Y296)
inactive: [1] -0.062 | [2] 0.043 | [3] -0.059 | [4] -0.002 | entinostat 0.007 | vorinostat -0.008 | citarinostat 0.045 | silmitasertib 0.046 | [5] 0.01 | [6] -0.065

TNKS1BP1 (UniProt Q9C0C2)
inactive: [1] -0.036 | [2] 0.051 | [3] 0.055 | [4] 0.105 | entinostat -0.061 | vorinostat -0.043 | citarinostat -0.031 | silmitasertib -0.005 | [5] 0.004 | [6] -0.05

TOR1B (UniProt O14657)
inactive: [1] -0.015 | [2] -0.054 | [3] -0.067 | [4] -0.035 | entinostat 0.016 | vorinostat -0.046 | citarinostat 0.02 | silmitasertib 0.048 | [5] 0.014 | [6] -0.149

TOX4 (UniProt O94842)
inactive: [1] 0.036 | [2] 0.094 | [3] 0.185 | [4] 0.094 | entinostat -0.033 | vorinostat 0 | citarinostat -0.139 | silmitasertib 0.085 | [5] 0.287 | [6] 0.058
